Measurements: patent publication US20220315968A1, “PEPTIDES AND METHODS FOR THE CARBON-CARBON BOND FORMATION” (Max-Planck-Gesellschaft zur Förderung der Wissenschaften …, priority 2019, published 2022)

system: OXS-OXCMe-Y497A-YciA cascade; assay type: biochemical; details: enantiomeric excess of the α-hydroxy acid product; 25 mM aldehyde, 10 mM disodium oxalate; chiral HPLC
Procedure: Samples were diluted 1:10 in H2O. UPLC-high resolution MS analyses were performed on an Agilent 6550 iFunnel QTOF LC/MS system equipped with an electrospray ionization source to negative ionization mode. The analytes were isocratically chromatographed on a chiral column (100 mm×2.1 mm, particle size 2.7 μm, Poroshell 120 Chiral-T, Agilent) kept at ambient temperature using a mobile phase system comprised of 30:70 20 mM ammonium formate pH 4/methanol at a flow rate of 250 μl/min for 10 min. Samples were held at 10° C. and injection volume was 1 μl. […] MS data were acquired with a scan range of 100-1100 m/z. For quantification the calculated m/z value of [M-H]^− was used to obtain the extracted ion count from the total ion count.
0.5 mM ADP, 0.15 mM ThDP, 0.5 mM CoA, 10 mM ATP, 25 mM benzaldehyde, 5 μM OXS, 5 μM OXC and 2 μM YciA. The reaction was started by adding 10 mM oxalate. As negative controls, YciA, OXS or OXC were omitted in separate reactions. Samples were taken after 0, 0.05, 0.25, 0.66, 1, 2, 3, 22 hours and analyzed with the LC-MS detection of mandelic acid derivatives.
The aldehyde substrate screen of the OXS-OXCMe-Y497A-YciA cascade was carried out as described above (example 13), except that the aromatic aldehydes were prepared as 33 mM stocks in 20 vol % DMSO and diluted to final concentration of 25 mM into the assay. Samples were analyzed with the mandelic acid derivatives method described above. Mandelic acid (3a), 4-chloromandelic acid (3c), 2-chloromandelic acid (3d) and 3-phenyllactic acid (3b) were quantified by comparison to commercial standards.

Structure (SMILES) | ee [%]
O=C(O)C(O)c1ccc(O)cc1 (stereo not drawn) [4-hydroxymandelic acid] | 95
O=Cc1ccc(C(O)C(=O)O)cc1 (stereo not drawn) [4-aldehydemandelic acid] | 46
O=C(O)C(O)c1ccc(Cl)cc1 (racemic) [4-chloromandelic acid] | 95
CC(=O)c1ccc(C(O)C(=O)O)cc1 (stereo not drawn) [4-acetylmandelic acid] | 51
C#Cc1ccc(C(O)C(=O)O)cc1 (stereo not drawn) [4-ethynylmandelic acid] | 75
O=C(O)C(O)c1ccccc1 (stereo not drawn) [mandelic acid] | 99
O=C(O)C(O)c1cccs1 (stereo not drawn) [Hydroxy(2-thiopheneyl)acetic acid] | 65
O=C(O)C(O)c1ccc([N+](=O)[O-])cc1 (stereo not drawn) [4-nitromandelic acid] | 80
O=C(O)C(O)c1ccco1 (stereo not drawn) [Hydroxy(2-furyl)acetic acid] | 75
O=C(O)C(O)c1ccc2ccccc2c1 (stereo not drawn) [Hydroxy(2-naphthyl)acetic acid] | 80
O=C(O)C(O)c1cccc(Cl)c1 (stereo not drawn) [3-chloromandelic acid] | 98
O=C(O)[C@@H](O)c1ccccc1Cl [2-chloromandelic acid, (S)-2-chloromandelic acid] | 44
